Values from PubChem BioAssay AID504764 (Drosophila RNAi Screening Center, 2011).
Test: 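Genes whose knock-down alters Notch-dependent transcription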 (primary screen). Cells: Drosophila Kc167 cells. Reagent: long dsRNA against Drosophila genes. Timing: about 5 days (4 days dsRNA, then 24 h after transfection). Challenge: transfection of constitutively active membrane-tethered Notch lacking the extracellular domain, read 24 h later. Measured: 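Firefly luciferase from an E(spl)m3 reporter with active Notch, plus control-promoter and uninduced reporter wells for normalisation; unnormalised counts, duplicate wells a and b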. Direction: induced reporter light, run 1, well a and induced reporter light, run 1, well b: higher = more light from the Notch target reporter with active Notch; control promoter light, run 1, well a and control promoter light, run 1, well b: higher = more light from the viral control promoter (cell number, transfection, viability); uninduced reporter light, run 1, well a: higher = more light from the Notch target reporter without active Notch. Hit rule: 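Hit if the duplicate-averaged log2 ratio of induced to control-promoter light gives a plate-wise z beyond ±2, or induced to uninduced beyond ±1.8; weak-control or discordant-duplicate wells dropped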. Meaning of the calls: active = modifier hit (raised or lowered Notch signal); inactive = not a hit.
In all, the deposit lists about 22,000 reagents; this is a random part of those that have a named target and a result. Of all reagents, 403 (1.9%) were called active. 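Unnormalised raw counts per well; ratio z-scores behind the hit calls and whether each hit raises or lowers signal are not deposited.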 Not stated in the record: the amount of reagent.

CG5116 [DRSC15720]: induced reporter light, run 1, well a = 2.70e5; induced reporter light, run 1, well b = 2.24e5; control promoter light, run 1, well a = 3.77e5; control promoter light, run 1, well b = 3.78e5; uninduced reporter light, run 1, well a = 13155; Outcome = inactive
Veneno [DRSC16537]: induced reporter light, run 1, well a = 63365; induced reporter light, run 1, well b = 69050; control promoter light, run 1, well a = 68720; control promoter light, run 1, well b = 49150; uninduced reporter light, run 1, well a = 4260; Outcome = inactive
nolo [DRSC03705]: induced reporter light, run 1, well a = 2.05e5; induced reporter light, run 1, well b = 1.99e5; control promoter light, run 1, well a = 1.50e5; control promoter light, run 1, well b = 1.63e5; uninduced reporter light, run 1, well a = 15750; Outcome = inactive
nolo [DRSC03719]: induced reporter light, run 1, well a = 45440; induced reporter light, run 1, well b = 44605; control promoter light, run 1, well a = 45660; control promoter light, run 1, well b = 32075; uninduced reporter light, run 1, well a = 2570; Outcome = inactive
nolo [DRSC03720]: induced reporter light, run 1, well a = 42075; induced reporter light, run 1, well b = 33120; control promoter light, run 1, well a = 53800; control promoter light, run 1, well b = 34960; uninduced reporter light, run 1, well a = 3695; Outcome = inactive
CG32196 [DRSC09548]: induced reporter light, run 1, well a = 1.77e5; induced reporter light, run 1, well b = 1.96e5; control promoter light, run 1, well a = 2.77e5; control promoter light, run 1, well b = 2.67e5; uninduced reporter light, run 1, well a = 19115; Outcome = inactive
CG3164 [DRSC00572]: induced reporter light, run 1, well a = 1.49e5; induced reporter light, run 1, well b = 1.45e5; control promoter light, run 1, well a = 1.14e5; control promoter light, run 1, well b = 60810; uninduced reporter light, run 1, well a = 12138; Outcome = inactive
CG4459 [DRSC15582]: induced reporter light, run 1, well a = 2.01e5; induced reporter light, run 1, well b = 1.75e5; control promoter light, run 1, well a = 1.85e5; control promoter light, run 1, well b = 1.88e5; uninduced reporter light, run 1, well a = 11360; Outcome = inactive

No new results follow: an excerpt of the list.
nolo [DRSC03705]: induced reporter light, run 1, well a = 2.05e5; induced reporter light, run 1, well b = 1.99e5; control promoter light, run 1, well a = 1.50e5; control promoter light, run 1, well b = 1.63e5; uninduced reporter light, run 1, well a = 15750; Outcome = inactive
nolo [DRSC03719]: induced reporter light, run 1, well a = 45440; induced reporter light, run 1, well b = 44605; control promoter light, run 1, well a = 45660; control promoter light, run 1, well b = 32075; uninduced reporter light, run 1, well a = 2570; Outcome = inactive
nolo [DRSC03720]: induced reporter light, run 1, well a = 42075; induced reporter light, run 1, well b = 33120; control promoter light, run 1, well a = 53800; control promoter light, run 1, well b = 34960; uninduced reporter light, run 1, well a = 3695; Outcome = inactive

Additional records follow:
zda [DRSC06936]: induced reporter light, run 1, well a = 83965; induced reporter light, run 1, well b = 92085; control promoter light, run 1, well a = 1.52e5; control promoter light, run 1, well b = 1.83e5; uninduced reporter light, run 1, well a = 7635; Outcome = inactive
CG13578 [DRSC04214]: induced reporter light, run 1, well a = 2.22e5; induced reporter light, run 1, well b = 1.94e5; control promoter light, run 1, well a = 1.89e5; control promoter light, run 1, well b = 1.97e5; uninduced reporter light, run 1, well a = 14145; Outcome = inactive
CG14770 [DRSC17947]: induced reporter light, run 1, well a = 1.33e5; induced reporter light, run 1, well b = 1.19e5; control promoter light, run 1, well a = 1.63e5; control promoter light, run 1, well b = 2.18e5; uninduced reporter light, run 1, well a = 8745; Outcome = inactive
Mrm2 [DRSC14310]: induced reporter light, run 1, well a = 1.70e5; induced reporter light, run 1, well b = 1.51e5; control promoter light, run 1, well a = 2.07e5; control promoter light, run 1, well b = 2.00e5; uninduced reporter light, run 1, well a = 11600; Outcome = inactive
Mapmodulin [DRSC06956]: induced reporter light, run 1, well a = 67175; induced reporter light, run 1, well b = 73630; control promoter light, run 1, well a = 1.03e5; control promoter light, run 1, well b = 1.21e5; uninduced reporter light, run 1, well a = 6955; Outcome = inactive
CG9040 [DRSC11053]: induced reporter light, run 1, well a = 1.95e5; induced reporter light, run 1, well b = 1.82e5; control promoter light, run 1, well a = 2.75e5; control promoter light, run 1, well b = 2.98e5; uninduced reporter light, run 1, well a = 8655; Outcome = inactive
CG6793 [DRSC10714]: induced reporter light, run 1, well a = 1.13e5; induced reporter light, run 1, well b = 1.03e5; control promoter light, run 1, well a = 1.48e5; control promoter light, run 1, well b = 1.41e5; uninduced reporter light, run 1, well a = 8580; Outcome = inactive
CG14070 [DRSC02373]: induced reporter light, run 1, well a = 1.07e5; induced reporter light, run 1, well b = 1.28e5; control promoter light, run 1, well a = 68615; control promoter light, run 1, well b = 79095; uninduced reporter light, run 1, well a = 16385; Outcome = inactive
CG2533 [DRSC19855]: induced reporter light, run 1, well a = 1.16e5; induced reporter light, run 1, well b = 87245; control promoter light, run 1, well a = 1.02e5; control promoter light, run 1, well b = 1.28e5; uninduced reporter light, run 1, well a = 6225; Outcome = inactive
Poxm [DRSC16793]: induced reporter light, run 1, well a = 94550; induced reporter light, run 1, well b = 87845; control promoter light, run 1, well a = 69475; control promoter light, run 1, well b = 81110; uninduced reporter light, run 1, well a = 6515; Outcome = inactive
